In the supplement of paper PMC10849652:
This is one part of the list.

Amino acid sequences for entries named in this document (tags omitted). A change or cut given only in a name is not applied to a line headed by its entry.
UniProt Q15011: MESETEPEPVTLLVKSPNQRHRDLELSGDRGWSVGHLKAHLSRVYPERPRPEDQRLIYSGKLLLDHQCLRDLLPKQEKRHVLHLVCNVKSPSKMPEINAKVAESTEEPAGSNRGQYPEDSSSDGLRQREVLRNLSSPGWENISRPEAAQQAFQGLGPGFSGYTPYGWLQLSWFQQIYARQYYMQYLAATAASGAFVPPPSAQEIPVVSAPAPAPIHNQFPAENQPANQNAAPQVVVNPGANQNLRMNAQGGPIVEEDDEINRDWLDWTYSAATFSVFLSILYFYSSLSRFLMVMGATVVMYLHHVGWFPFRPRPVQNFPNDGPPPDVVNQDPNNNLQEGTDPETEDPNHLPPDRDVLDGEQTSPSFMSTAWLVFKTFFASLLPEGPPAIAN
UniProt Q969F1: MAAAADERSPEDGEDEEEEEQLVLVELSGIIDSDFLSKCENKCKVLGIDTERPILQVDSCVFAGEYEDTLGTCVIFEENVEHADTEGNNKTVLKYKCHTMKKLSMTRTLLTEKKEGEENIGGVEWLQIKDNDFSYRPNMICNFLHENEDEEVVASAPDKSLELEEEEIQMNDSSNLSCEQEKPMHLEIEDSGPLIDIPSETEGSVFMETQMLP
UniProt P08263: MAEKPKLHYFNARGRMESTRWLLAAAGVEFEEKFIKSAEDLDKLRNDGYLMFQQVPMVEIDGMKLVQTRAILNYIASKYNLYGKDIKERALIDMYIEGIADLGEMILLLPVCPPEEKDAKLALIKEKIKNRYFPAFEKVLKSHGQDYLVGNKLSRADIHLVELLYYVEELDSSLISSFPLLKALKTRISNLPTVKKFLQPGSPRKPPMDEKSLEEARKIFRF
UniProt O95714: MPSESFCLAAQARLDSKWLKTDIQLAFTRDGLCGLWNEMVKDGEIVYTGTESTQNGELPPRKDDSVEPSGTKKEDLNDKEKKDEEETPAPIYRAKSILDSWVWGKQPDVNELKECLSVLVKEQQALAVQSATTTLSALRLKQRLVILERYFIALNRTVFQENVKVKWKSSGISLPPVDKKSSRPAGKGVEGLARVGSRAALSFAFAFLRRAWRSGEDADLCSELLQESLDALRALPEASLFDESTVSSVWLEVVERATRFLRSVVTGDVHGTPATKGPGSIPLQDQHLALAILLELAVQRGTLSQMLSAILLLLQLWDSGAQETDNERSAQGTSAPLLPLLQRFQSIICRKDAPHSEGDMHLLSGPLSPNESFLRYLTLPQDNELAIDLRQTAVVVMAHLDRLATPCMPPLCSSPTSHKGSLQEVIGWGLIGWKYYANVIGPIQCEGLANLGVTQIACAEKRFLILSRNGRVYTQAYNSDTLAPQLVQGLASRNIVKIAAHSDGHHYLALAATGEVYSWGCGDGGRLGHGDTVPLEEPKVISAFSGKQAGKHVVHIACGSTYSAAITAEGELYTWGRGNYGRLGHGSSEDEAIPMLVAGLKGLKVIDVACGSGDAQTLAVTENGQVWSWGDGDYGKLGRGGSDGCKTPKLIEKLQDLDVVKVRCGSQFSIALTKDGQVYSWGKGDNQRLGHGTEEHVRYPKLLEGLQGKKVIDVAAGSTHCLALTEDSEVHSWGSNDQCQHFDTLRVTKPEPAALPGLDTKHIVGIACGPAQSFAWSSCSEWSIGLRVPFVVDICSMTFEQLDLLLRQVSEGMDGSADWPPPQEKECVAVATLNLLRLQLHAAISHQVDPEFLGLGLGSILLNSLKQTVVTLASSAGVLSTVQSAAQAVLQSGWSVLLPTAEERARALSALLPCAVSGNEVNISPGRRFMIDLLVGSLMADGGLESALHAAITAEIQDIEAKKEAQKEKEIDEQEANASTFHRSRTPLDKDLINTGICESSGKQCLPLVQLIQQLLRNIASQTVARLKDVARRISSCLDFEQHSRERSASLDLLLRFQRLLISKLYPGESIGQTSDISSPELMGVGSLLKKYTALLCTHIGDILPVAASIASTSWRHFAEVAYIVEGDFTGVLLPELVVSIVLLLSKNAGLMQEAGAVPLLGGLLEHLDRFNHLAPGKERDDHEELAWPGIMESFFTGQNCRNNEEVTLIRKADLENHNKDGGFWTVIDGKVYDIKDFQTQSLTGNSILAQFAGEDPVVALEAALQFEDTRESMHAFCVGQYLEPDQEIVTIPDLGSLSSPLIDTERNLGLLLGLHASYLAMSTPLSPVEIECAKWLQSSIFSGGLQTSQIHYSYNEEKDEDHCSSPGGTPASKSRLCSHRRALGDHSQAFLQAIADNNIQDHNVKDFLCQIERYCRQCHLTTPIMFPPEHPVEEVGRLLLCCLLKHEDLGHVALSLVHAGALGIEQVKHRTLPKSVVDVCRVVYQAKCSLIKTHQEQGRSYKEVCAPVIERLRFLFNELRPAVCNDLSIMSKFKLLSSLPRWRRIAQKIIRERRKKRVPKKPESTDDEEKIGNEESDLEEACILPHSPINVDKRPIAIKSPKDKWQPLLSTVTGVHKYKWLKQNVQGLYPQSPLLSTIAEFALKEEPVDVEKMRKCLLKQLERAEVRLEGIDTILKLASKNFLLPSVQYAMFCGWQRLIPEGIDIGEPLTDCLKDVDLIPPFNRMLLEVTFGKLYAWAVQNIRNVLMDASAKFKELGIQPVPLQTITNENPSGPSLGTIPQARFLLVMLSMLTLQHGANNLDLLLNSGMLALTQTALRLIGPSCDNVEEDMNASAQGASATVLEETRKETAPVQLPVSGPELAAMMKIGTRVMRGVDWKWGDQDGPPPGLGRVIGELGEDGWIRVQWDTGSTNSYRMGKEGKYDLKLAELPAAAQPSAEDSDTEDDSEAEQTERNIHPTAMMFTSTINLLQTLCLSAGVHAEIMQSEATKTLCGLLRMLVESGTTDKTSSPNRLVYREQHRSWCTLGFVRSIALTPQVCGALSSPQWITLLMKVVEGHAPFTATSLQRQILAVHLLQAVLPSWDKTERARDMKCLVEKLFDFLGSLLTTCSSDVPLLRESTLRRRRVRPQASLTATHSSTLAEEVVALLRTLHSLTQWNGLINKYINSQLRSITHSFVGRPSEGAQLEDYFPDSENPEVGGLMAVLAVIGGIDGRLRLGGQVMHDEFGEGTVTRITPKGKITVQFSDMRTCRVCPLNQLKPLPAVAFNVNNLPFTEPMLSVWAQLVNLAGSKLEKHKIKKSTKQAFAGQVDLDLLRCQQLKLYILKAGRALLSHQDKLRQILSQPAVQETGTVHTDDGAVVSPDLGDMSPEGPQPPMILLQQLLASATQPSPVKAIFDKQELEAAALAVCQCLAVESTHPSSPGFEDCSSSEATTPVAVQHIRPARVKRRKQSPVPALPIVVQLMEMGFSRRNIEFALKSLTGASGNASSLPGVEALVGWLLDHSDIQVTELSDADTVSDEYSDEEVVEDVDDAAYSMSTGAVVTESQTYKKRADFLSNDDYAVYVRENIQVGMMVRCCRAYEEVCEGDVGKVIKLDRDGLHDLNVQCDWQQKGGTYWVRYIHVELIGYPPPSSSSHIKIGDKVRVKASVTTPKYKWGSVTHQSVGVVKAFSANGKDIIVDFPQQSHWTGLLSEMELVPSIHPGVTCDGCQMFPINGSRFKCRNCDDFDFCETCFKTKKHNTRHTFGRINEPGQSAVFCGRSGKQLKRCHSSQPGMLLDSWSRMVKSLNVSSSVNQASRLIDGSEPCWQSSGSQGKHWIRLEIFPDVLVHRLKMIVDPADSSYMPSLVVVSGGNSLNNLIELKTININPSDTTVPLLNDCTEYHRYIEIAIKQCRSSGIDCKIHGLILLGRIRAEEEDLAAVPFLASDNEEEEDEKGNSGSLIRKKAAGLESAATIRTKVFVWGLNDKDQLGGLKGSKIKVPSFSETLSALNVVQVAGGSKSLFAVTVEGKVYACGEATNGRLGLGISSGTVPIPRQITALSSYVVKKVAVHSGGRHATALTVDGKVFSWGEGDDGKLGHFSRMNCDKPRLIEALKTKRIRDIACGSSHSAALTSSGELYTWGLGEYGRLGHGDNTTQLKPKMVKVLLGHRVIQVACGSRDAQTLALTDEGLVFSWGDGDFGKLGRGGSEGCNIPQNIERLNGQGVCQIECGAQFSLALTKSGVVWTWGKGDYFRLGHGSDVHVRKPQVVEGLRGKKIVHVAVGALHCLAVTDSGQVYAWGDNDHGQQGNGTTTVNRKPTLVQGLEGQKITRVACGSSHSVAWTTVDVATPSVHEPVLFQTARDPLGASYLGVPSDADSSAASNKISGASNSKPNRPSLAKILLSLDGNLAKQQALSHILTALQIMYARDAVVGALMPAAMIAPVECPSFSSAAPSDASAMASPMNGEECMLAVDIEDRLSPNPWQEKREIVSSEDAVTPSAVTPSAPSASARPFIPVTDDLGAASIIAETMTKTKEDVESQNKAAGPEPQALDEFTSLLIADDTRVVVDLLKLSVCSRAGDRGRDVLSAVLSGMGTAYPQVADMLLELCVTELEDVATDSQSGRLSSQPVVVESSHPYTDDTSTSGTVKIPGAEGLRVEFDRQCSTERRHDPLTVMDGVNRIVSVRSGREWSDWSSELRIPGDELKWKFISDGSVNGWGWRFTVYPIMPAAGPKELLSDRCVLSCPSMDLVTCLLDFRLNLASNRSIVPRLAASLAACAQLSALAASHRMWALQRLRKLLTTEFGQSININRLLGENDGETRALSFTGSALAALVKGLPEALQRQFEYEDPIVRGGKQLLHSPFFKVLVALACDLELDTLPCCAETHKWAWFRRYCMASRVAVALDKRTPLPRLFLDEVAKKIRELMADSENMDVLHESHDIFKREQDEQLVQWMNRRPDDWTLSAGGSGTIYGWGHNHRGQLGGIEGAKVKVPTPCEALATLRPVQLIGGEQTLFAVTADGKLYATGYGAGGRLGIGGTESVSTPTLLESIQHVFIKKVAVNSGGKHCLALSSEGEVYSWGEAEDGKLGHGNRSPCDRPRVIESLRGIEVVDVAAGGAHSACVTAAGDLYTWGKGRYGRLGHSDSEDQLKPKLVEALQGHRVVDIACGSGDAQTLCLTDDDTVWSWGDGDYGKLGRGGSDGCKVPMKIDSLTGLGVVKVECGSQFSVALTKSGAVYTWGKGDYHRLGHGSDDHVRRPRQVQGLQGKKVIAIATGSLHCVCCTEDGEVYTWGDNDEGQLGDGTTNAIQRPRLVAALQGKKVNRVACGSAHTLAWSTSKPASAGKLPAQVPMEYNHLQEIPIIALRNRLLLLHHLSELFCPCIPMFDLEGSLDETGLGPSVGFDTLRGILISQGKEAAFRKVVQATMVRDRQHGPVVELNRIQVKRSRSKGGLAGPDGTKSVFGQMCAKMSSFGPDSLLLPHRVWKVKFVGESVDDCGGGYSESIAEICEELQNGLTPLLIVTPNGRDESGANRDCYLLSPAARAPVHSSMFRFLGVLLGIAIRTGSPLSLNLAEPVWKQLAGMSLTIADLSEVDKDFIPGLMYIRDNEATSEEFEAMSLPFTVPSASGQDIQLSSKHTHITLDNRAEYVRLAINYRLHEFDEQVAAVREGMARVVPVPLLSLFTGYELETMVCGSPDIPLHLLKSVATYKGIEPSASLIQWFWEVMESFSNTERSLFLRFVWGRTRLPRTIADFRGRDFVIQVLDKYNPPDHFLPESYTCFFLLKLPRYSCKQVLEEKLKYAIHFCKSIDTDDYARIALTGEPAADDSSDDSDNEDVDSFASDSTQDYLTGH
UniProt Q8IYU2: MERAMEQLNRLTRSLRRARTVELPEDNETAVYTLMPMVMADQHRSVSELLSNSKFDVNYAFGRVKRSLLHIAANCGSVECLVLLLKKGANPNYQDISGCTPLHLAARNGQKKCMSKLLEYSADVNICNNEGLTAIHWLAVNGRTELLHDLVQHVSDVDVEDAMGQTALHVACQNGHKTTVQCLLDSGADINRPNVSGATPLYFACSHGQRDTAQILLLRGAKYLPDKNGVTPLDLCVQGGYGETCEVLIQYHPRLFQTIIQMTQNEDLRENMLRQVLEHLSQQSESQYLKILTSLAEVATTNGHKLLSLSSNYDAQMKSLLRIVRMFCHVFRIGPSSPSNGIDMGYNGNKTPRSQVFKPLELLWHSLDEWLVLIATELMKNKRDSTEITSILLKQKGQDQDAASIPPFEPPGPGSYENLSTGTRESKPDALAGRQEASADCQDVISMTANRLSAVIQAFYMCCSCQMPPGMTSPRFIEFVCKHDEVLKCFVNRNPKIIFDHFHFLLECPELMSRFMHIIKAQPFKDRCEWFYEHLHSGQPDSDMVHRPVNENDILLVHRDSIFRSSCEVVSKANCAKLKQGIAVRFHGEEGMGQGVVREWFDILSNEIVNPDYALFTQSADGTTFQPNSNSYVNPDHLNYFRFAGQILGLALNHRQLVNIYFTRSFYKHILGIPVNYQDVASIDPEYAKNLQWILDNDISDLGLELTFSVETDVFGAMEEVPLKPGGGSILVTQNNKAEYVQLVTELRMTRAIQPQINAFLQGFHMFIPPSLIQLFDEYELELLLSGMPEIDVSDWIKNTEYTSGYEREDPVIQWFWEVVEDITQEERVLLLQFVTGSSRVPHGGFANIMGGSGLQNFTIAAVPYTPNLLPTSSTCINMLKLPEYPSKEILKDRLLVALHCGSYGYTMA

Experiments:
Test in all cases: log2 fold change, soluble protein after heating vs DMSO (PISA); higher = thermal stabilisation; K562 cells, 10 uM, 30 min; active = over 0.2 and 3.5 SD of the protein, either way, in both replicates (recomputed)
[1] = compound: C1=CC=C(C=C1)C2=NC(=C(N2)C3=CC=NC=C3)C4=CC(=C(C=C4)Cl)O
Outline: (§1)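 K562 cells (2×10^6 cells/mL) were treated with 10 μM compound for 30 min, and aliquots were heated for 3 min over 48°C-58°C. Pooled aliquots were extracted in PBS with 0.5% NP-40 at 4°C, and the supernatant after 21,000xg for 90 min was measured by TMTpro 16plex LC-MS/MS with channel sums equalised. Reported thermal stability, relative to control samples and from duplicates, is a log2 fold change.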

erlotinib = compound: C#Cc1cccc(Nc2ncnc3cc(OCCOC)c(OCCOC)cc23)c1 [erlotinib]
Outline: as §1

[2] = compound: C1=CC(=CC=C1C2=NC3=C(N2)C=C(C=C3)C(=O)N)OC4=CC=C(C=C4)Cl
Outline: as §1

[3] = compound: C/C(=N\NC(=O)C1=CC(=CC=C1)S(=O)(=O)N2CCOCC2)/C3=C(C=CC(=C3)Cl)O
Outline: as §1

[4] = compound: C1=CC(=C(C=C1Cl)C2=NC3=NC=CN=C3C(=N2)NC4=CC=NC=C4)F
Outline: as §1

[5] = compound: C1=CC2=C(C=CC(=C2)/C=C\3/C(=O)NC(=NCC4=CC=CS4)S3)N=C1
Outline: as §1

[6] = compound: C1=CC2=NC=CN=C2C=C1/C=C/3\C(=O)NC(=O)S3
Outline: as §1

[7] = compound: C1=CC=C2C(=C1)C3=NNC4=CC=CC(=C43)C2=O
Outline: as §1

[8] = compound: C1CCN(C1)C(=O)NC2=CC=CC(=C2)NC3=NC=C(C(=N3)NCCC4=CN=CN4)Br
Outline: as §1

[9] = compound: C1CN(CCC1(CC2=CC=C(C=C2)Cl)N)C3=NC=NC4=C3C=CN4
Outline: as §1

Measured: log2 fold change

H3C1 (UniProt P68431)
inactive: [1] -0.354

GYG2 (UniProt O15488)
inactive: erlotinib 0.077 | [2] 0.166

GTPBP4 (UniProt Q9BZE4)
inactive: [3] -0.391 | [4] -0.778 | [5] -0.029 | [6] -0.067 | [1] -0.119 | [7] -0.081 | [8] -0.01 | [9] -0.263

HES1 (UniProt Q14469)
inactive: erlotinib 0.244 | [3] 0.316 | [2] -0.059 | [5] 0.043 | [7] -0.096 | [8] -0.214 | [9] -0.174

HCFC1 (UniProt P51610)
inactive: erlotinib -0.186 | [2] -0.417 | [1] 0.054 | [8] -0.038 | [9] -0.226

HEXD isoform 2 (UniProt Q8WVB3)
inactive: erlotinib 0.021 | [4] -0.003 | [2] 0.091

HABP4 (UniProt Q5JVS0)
inactive: erlotinib -0.031 | [4] -0.307 | [2] 0.002 | [6] 0.224 | [1] 0.026

HERPUD1 (UniProt Q15011)
inactive: erlotinib -0.058 | [2] -0.036 | [8] 0.017 | [9] -0.001

GZF1 (UniProt Q9H116)
inactive: [3] -0.212 | [5] -0.296 | [7] -0.453

GUF1 (UniProt Q8N442)
inactive: erlotinib 0.075 | [3] -0.039 | [2] -0.161 | [5] -0.045 | [1] 0.01 | [7] 0.14 | [8] -0.022 | [9] -0.002

Quoted at random: 3 entries already listed.
HCFC1 (UniProt P51610)
inactive: erlotinib -0.186 | [2] -0.417 | [1] 0.054 | [8] -0.038 | [9] -0.226

GZF1 (UniProt Q9H116)
inactive: [3] -0.212 | [5] -0.296 | [7] -0.453

HERPUD1 (UniProt Q15011)
inactive: erlotinib -0.058 | [2] -0.036 | [8] 0.017 | [9] -0.001

More records.

HFM1 (UniProt A2PYH4)
inactive: [6] 0.117

GTF3C6 (UniProt Q969F1)
inactive: [4] -0.051 | [6] 0.122 | [8] 0.026 | [9] -0.042

HAUS5 (UniProt O94927)
inactive: [3] -0.099 | [5] 0.037 | [1] -0.068 | [7] 0.027 | [8] -0.403 | [9] -0.203

GTF2H4 (UniProt Q92759)
inactive: [3] 0.003 | [4] -0.113 | [5] 0.17 | [7] 0.085 | [8] 0.19 | [9] 0.098

H3-3A (UniProt P84243)
inactive: erlotinib 0.085 | [2] -0.035 | [6] -0.1 | [8] 0.049 | [9] -0.218

HACD2 (UniProt Q6Y1H2)
inactive: erlotinib -0.138 | [2] 0.063 | [8] -0.046 | [9] 0.179

HGD (UniProt Q93099)
inactive: [4] -0.03

HAUS2 (UniProt Q9NVX0)
inactive: erlotinib -0.037 | [3] 0.075 | [2] 0.138 | [5] -0.331 | [7] -0.046

GSTA1 (UniProt P08263)
inactive: [4] 0.008 | [6] -0.08 | [8] 0.189 | [9] 0.06

HECTD4 (UniProt Q9Y4D8)
inactive: erlotinib -0.08 | [2] -0.038

HEATR3 (UniProt Q7Z4Q2)
inactive: erlotinib -0.002 | [4] -0.013 | [2] 0.013 | [6] -0.044 | [1] 0.062 | [8] -0.113 | [9] 0.032

HDAC8 (UniProt Q9BY41)
inactive: [4] -0.48

HBB (UniProt P68871)
inactive: [3] 0.061 | [5] 0.073 | [7] -0.005

HBZ, A0A494C057
inactive: erlotinib 0.141 | [2] -0.062 | [6] -0.055

HGF (UniProt P14210)
inactive: [4] -0.041 | [6] 0.083 | [8] 0.148 | [9] 0.265

HBD (UniProt E9PEW8)
inactive: erlotinib 0.054 | [2] -0.037

HAGHL (UniProt Q6PII5)
inactive: erlotinib 0.051 | [4] -0.067 | [2] 0.069 | [6] 0.287 | [1] 0.121 | [8] -0.07 | [9] 0.026

HAUS8 (UniProt Q9BT25)
inactive: [3] -0.032 | [5] 0.126 | [1] -0.008 | [7] -0.035

HERC2 (UniProt O95714)
inactive: [3] -0.087 | [4] -0.423 | [5] 0.063 | [6] -0.313 | [1] -0.209 | [7] 0 | [8] 0.143 | [9] -0.045

HELLS (UniProt Q9NRZ9)
inactive: [4] -0.229 | [6] 0.021

HAUS7 isoform 2 (UniProt Q99871)
inactive: [3] 0.089 | [5] 0.011 | [1] -0.069 | [7] -0.024

GTF2H1 (UniProt P32780)
inactive: erlotinib 0.019 | [2] -0.037 | [1] 0.037

HAL (UniProt P42357)
inactive: [3] -0.151 | [4] 0.092 | [5] 0.404 | [7] -0.351 | [8] -0.106 | [9] -0.173

GTPBP8 (UniProt Q8N3Z3)
inactive: erlotinib 0.226 | [2] -0.071 | [8] 0 | [9] 0.13

H3-2 (UniProt Q5TEC6)
inactive: erlotinib 0.266 | [2] -0.045 | [6] -0.271 | [1] -0.027

HACE1 (UniProt Q8IYU2)
inactive: erlotinib 0.03 | [2] 0.055 | [8] -0.123 | [9] -0.027

HGFAC (UniProt Q04756)
inactive: erlotinib -0.281 | [4] 0.222 | [2] 0.27 | [6] 0.093 | [8] -0.043 | [9] 0.221
